Test results taken from patent US5079341 (dated 1992).

Assay: general procedure: solution-phase peptide synthesis; DppCl / NMM (mixed anhydride)
Settings: coupling step

In order of falling step yield:
1. Z-Abu-Sar-(Me)Leu-Val-(Me)Leu-Ala-D-Ala-(Me)Leu-(Me)Leu-(Me)Val-OBu^t  90%
2. Z-Ala-D-Ala-(Me)Leu-(Me)Leu-(Me)Val-OBu^t  88%
3. Z-(Me)Thr(Bu^t)-Abu-Sar-(Me)Leu-Val-(Me)Leu-Ala-D-Ala-(Me)Leu-(Me)Leu-(Me)Val-OBu^t  86%
4. Z-D-Ala-(Me)Leu-(Me)Leu-(Me)Val-OBu^t  80%
5. Z-Nle-Sar-(Me)Leu-Val-(Me)Leu-Ala-D-Ala-(Me)Leu-(Me)Leu-(Me)Val-OBu^t  77%
6. Z-(Me)Ser(Bu^t)-Nle-Sar-(Me)Leu-Val-(Me)Leu-Ala-D-Ala-(Me)Leu-(Me)Leu-(Me)Val-OBu^t  75%
7. Z-Val-(Me)Leu-Ala-D-Ala-(Me)Leu-(Me)Leu-(Me)Val-OBu^t  75%
8. Z-(Me)Ser(Bu^t)-Nva-Sar-(Me)Leu-Val-(Me)Leu-Ala-D-Ala-(Me)Leu-(Me)Leu-(Me)Val-OBu^t  73%
9. Fmoc-(Me)Thr(Bu^t)-Abu-Sar-(Me)Leu-Val-(Me)Leu-Ala-D-Ala-(Me)Leu-(Me)Leu-(Me)Val-OBu^t  69%
10. Z-(Me)Thr(Bu^t)-Nva-Sar-(Me)Leu-Val-(Me)Leu-Ala-D-Ala-(Me)Leu-(Me)Leu-(Me)Val-OBu^t  65%
11. Z-(Me)Thr(Bu^t)-Nle-Sar-(Me)Leu-Val-(Me)Leu-Ala-D-Ala-(Me)Leu-(Me)Leu-(Me)Val-OBu^t  64%
12. Z-Sar-(Me)Leu-Val-(Me)Leu-Ala-D-Ala-(Me)Leu-(Me)Leu-(Me)Val-OBu^t  64%
13. Z-(Me)Ser(Bu^t)-Thr(Bu^t)-Sar-(Me)Leu-Val-(Me)Leu-Ala-D-Ala-(Me)Leu-(Me)Leu-(Me)Val-OBu^t  52%
14. Z-Thr(Bu^t)-Sar-(Me)Leu-Val-(Me)Leu-Ala-D-Ala-(Me)Leu-(Me)Leu-(Me)Val-OBu^t  48%
15. Z-(Me)Ser(Bu^t)-Abu-Sar-(Me)Leu-Val-(Me)Leu-Ala-D-Ala-(Me)Leu-(Me)Leu-(Me)Val-OBu^t  41%

Same assay, conditions: coupling step; run 1

Substance “Z-(Me)Leu-Val-(Me)Leu-Ala-D-Ala-(Me)Leu-(Me)Leu-(Me)Val-OBu^t” has a step yield of 27%.

Same assay, conditions: coupling step; run 2

“Z-(Me)Leu-Val-(Me)Leu-Ala-D-Ala-(Me)Leu-(Me)Leu-(Me)Val-OBu^t” gave a step yield of 94%.

Same assay, conditions: cyclisation step

In order of rising cyclisation yield:
1. Cyclo-[(Me)Ser-Abu-Sar-(Me)Leu-Val-(Me)Leu-Ala-D-Ala-(Me)Leu-(Me)Leu-(Me)Val]  15%
2. Cyclo-[(Me)Ser-Nle-Sar-(Me)Leu-Val-(Me)Leu-Ala-D-Ala-(Me)Leu-(Me)Leu-(Me)Val]  16%
3. Cyclo[Hyp-Abu-Sar-(Me)Leu-Val-(Me)Leu-Ala-D-Ala-(Me)Leu-(Me)Leu-(Me)Val]  30%

In order of falling cyclisation yield:
1. Cyclo-[(Me)Ser-Nva-Sar-(Me)Leu-Val-(Me)Leu-Ala-D-Ala-(Me)Leu-(Me)Leu-(Me)Val]  20% yield
2. Cyclo-[(Me)Thr-Nle-Sar-(Me)Leu-Val-(Me)Leu-Ala-D-Ala-(Me)Leu-(Me)Leu-(Me)Val]  14% yield

Same assay, conditions: late stage modification step

In order of rising step yield:
1. Z-(Me)Ser-Thr-Sar-(Me)Leu-Val-(Me)Leu-Ala-D-Ala-(Me)Leu-(Me)Leu-(Me)Val-OH  50%
2. Z-(Me)Ser-Nva-Sar-(Me)Leu-Val-(Me)Leu-Ala-D-Ala-(Me)Leu-(Me)Leu-(Me)Val-OH  60%
3. Z-(Me)Thr-Nle-Sar-(Me)Leu-Val-(Me)Leu-Ala-D-Ala-(Me)Leu-(Me)Leu-(Me)Val-OH  60%
4. Z-Hyp-Abu-Sar-(Me)Leu-Val-(Me)Leu-Ala-D-Ala-(Me)Leu-(Me)Leu-(Me)Val-OH  65%
5. Z-(Me)Ser-Nle-Sar-(Me)Leu-Val-(Me)Leu-Ala-D-Ala-(Me)Leu-(Me)Leu-(Me)Val-OH  75%
6. Z-Hyp-Nle-Sar-(Me)Leu-Val-(Me)Leu-Ala-D-Ala-(Me)Leu-(Me)Leu-(Me) Val-OH  77%
7. H-Hyp-Nle-Sar-(Me)Leu-Val-(Me)Leu-Ala-D-Ala-(Me)Leu-(Me)Leu-(Me)Val-OH  79%
8. Z-(Val-(Me)Leu-Ala-D-Ala-(Me)Leu-(Me)Leu-(Me)Val-OBu^t  79%
9. H-(Me)Ser-Nle-Sar-(Me)Leu-Val-(Me)Leu-Ala-D-Ala-(Me)Leu-(Me)Leu-(Me)Val-OH  81%
10. H-(Me)Ser-Nva-Sar-(Me)Leu-Val-(Me)Leu-Ala-D-Ala-(Me)Leu-(Me)Leu-(Me)Val-OH  83%
11. H-Thr(Bu^t)-Sar-(Me)Leu-Val-(Me)Leu-L-Ala-D-Ala-(Me)Leu-(Me)Leu-(Me)Val-OBu^t  88%
12. H-(Me)Thr-Nle-Sar-(Me)Leu-Val-(Me)Leu-Ala-D-Ala-(Me)Leu-(Me)Leu-(Me)Val-OH  89%
13. H-D-Ala-(Me)Leu-(Me)Leu-(Me)Val-OBu^t  93%
14. H-Nva-Sar-(Me)Leu-Val-(Me)Leu-Ala-D-Ala-(Me)Leu-(Me)Leu-(Me)Val-OBu^t  94%
15. H-(Me)Ser-Thr-Sar-(Me) Leu-Val-(Me)Leu-Ala-D-Ala-(Me)Leu-(Me)Leu-(Me)Val-OH  95%
16. H-Nle-Sar-(Me)Leu-Val-(Me)Leu-Ala-D-Ala-(Me)Leu-(Me)Leu-(Me)Val-OBu^t  95%
17. H-Hyp-Abu-Sar-(Me)Leu-Val-(Me)Leu-Ala-D-Ala-(Me)Leu-(Me)Leu-(Me)Val-OH  96%
18. H-Abu-Sar-(Me)Leu-Val-(Me)Leu-Ala-D-Ala-(Me)Leu-(Me)Leu-(Me)Val-OBu^t  97%
19. H-Sar-(Me)Leu-Val-(Me)Leu-Ala-D-Ala-(Me)Leu-(Me)Leu-(Me)Val-OBu^t  97%
